Experimental data from article PMC8129428.
No constants are given. Whether binding was seen depends on the method and setting. In cells and extracts the contact can be indirect. Some results given as binding are weak or reduced against the parent protein; the word gives no strength.

Sequences of proteins named here, by UniProt entry; tags and fusion partners are left off.
UniProt Q96LA8: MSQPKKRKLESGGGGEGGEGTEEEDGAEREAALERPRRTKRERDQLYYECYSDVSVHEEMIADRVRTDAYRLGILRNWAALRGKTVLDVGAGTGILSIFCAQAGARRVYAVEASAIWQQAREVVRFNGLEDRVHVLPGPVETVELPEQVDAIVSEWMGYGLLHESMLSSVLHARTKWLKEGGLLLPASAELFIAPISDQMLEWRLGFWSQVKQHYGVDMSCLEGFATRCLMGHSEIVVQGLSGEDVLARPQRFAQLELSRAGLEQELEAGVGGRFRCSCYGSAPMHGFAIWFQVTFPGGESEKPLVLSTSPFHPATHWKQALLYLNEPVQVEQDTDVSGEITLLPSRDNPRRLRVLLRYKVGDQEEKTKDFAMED
UniProt Q01196: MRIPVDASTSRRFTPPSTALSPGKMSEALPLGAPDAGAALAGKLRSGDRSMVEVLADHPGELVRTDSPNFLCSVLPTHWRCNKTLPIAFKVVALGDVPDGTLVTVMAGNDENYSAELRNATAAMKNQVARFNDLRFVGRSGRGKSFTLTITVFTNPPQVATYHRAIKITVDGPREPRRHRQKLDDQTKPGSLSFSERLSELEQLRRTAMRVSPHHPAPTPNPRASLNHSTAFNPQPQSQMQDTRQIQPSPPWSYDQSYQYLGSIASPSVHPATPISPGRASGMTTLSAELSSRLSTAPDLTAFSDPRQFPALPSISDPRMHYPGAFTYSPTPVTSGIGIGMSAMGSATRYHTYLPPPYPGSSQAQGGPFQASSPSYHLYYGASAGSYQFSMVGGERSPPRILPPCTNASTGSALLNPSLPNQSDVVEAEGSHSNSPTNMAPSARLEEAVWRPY
UniProt Q99873: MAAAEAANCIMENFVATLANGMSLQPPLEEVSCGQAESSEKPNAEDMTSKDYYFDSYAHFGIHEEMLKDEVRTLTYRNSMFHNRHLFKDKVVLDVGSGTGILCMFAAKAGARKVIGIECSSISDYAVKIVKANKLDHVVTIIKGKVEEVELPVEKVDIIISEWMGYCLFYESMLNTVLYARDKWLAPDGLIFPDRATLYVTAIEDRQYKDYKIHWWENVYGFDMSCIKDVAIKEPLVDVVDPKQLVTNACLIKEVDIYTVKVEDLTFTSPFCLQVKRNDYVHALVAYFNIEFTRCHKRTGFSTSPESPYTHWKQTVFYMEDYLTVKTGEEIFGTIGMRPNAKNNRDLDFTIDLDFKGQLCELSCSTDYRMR

Legend:
GST-PRMT6 [1] = target: GST-PRMT6 (UniProt Q96LA8); test: pull-down; GST-PRMT6 on glutathione beads incubated with 500 ug lysate of HEK293T cells over expressing LEF1; Western blot with anti-LEF1; only the target purified
[2] = target: avi-PRMT6, biotin tagged, in HEK293 cells (UniProt Q96LA8); test: pull-down; co-streptavidin-precipitation (CoSP): biotin tagged bait co-transfected with the prey into HEK293 cells, pulled out of lysate (50 mM Tris pH 7.4, 50 mM NaCl, 1% Triton X-100) with streptavidin beads; Western blot
[3] = target: Biotinylated RUNX1 (bait) in HEK293 cells (UniProt Q01196); test: as above
GST-PRMT6 [4] = target: GST-PRMT6 (UniProt Q96LA8); test: pull-down; GST-PRMT6 on glutathione beads incubated with 10 uL in vitro translated LEF1 in 250 uL lysis buffer (50 mM Tris pH 7.4, 100 mM NaCl, 10% glycerol, 0.1% Triton X-100, 1 mM DTT, 1 mM EDTA), 3 h, 4 °C; Western blot with anti-LEF1; only the target purified

**Q.** For “LEF1 expressed in HEK293 cells (from UniProt Q9UJU2-1 1-399)”, which binding (GST-PRMT6 [1]) is on record?
**A.** binds

**Q.** What about the binding [2] of the same substance?
**A.** binds

**Q.** And the binding [3]?
**A.** binds

**Q.** Which binding (GST-PRMT6 [4]) does the source give for “LEF1, in vitro translated (from UniProt Q9UJU2-1 1-399)” here?
**A.** binds

**Q.** Which binding [2] does the source give for “PRMT1 expressed in HEK293 cells, detected with an anti-HA antibody (from UniProt Q99873 1-371) (enzyme)” here?
**A.** binds

**Q.** How did the binding [2] turn out when “RUNX1 expressed in HEK293 cells (prey) (from UniProt Q01196 1-453)” was run?
**A.** binds
